The list shows a part of the results.
Experiments:
Assay in all cases: log2 fold change, soluble protein after heating vs DMSO (PISA); higher = thermal stabilisation; K562 lysate, 10 uM; active = over 0.2 and 3.5 SD of the protein, either way, in both replicates (recomputed)
vemurafenib = compound: CCCS(=O)(=O)Nc1ccc(F)c(C(=O)c2c[nH]c3ncc(-c4ccc(Cl)cc4)cc23)c1F [vemurafenib]
How it was run: (§1)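 Dounce homogenisation of K562 pellets in PBS pH 7.4 with 1 mM MgCl2 produced a crude extract, used at 1 mg/mL protein. Exposure to 10 μM compound lasted 30 min, and aliquots were then heated for 3 min across 48°C-58°C, pooled and brought to 0.5% NP-40 at 4°C. The supernatant after 21,000xg for 90 min was quantified by TMTpro 16plex LC-MS/MS with channel sums equalised. Duplicate values are given as log-two fold change in thermal stability relative to solvent controls.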

By UniProt entry, the sequences of proteins in these tests, tags left out. Where a name states a change or a piece, a line headed by the entry shows the natural chain unless it says otherwise.
UniProt Q69YH5: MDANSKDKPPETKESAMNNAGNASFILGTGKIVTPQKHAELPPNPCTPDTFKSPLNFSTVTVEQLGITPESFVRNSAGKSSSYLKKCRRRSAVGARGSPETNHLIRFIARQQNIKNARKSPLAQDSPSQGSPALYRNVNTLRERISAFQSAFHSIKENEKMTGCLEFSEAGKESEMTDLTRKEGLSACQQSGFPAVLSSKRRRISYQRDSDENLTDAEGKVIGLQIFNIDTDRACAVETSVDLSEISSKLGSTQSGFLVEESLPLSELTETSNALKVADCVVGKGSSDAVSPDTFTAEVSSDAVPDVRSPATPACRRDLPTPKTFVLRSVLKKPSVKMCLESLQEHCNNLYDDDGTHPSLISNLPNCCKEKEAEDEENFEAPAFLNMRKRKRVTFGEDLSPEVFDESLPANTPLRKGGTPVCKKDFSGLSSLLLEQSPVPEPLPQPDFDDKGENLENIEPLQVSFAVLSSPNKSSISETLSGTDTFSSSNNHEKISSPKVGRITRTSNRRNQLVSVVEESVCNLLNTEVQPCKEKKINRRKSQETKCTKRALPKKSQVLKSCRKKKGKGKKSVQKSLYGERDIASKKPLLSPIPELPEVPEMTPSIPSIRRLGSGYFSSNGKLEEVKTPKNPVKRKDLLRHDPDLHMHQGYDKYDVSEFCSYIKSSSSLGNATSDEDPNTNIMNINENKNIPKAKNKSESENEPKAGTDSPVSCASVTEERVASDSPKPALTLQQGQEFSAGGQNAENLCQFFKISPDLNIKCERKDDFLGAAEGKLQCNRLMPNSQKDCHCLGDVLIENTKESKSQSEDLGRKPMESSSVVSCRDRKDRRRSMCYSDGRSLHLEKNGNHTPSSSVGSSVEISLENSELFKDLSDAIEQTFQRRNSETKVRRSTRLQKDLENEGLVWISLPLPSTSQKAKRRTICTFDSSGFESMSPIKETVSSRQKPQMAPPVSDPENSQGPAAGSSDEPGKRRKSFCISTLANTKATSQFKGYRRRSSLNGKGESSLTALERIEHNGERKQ
UniProt Q9UPN4: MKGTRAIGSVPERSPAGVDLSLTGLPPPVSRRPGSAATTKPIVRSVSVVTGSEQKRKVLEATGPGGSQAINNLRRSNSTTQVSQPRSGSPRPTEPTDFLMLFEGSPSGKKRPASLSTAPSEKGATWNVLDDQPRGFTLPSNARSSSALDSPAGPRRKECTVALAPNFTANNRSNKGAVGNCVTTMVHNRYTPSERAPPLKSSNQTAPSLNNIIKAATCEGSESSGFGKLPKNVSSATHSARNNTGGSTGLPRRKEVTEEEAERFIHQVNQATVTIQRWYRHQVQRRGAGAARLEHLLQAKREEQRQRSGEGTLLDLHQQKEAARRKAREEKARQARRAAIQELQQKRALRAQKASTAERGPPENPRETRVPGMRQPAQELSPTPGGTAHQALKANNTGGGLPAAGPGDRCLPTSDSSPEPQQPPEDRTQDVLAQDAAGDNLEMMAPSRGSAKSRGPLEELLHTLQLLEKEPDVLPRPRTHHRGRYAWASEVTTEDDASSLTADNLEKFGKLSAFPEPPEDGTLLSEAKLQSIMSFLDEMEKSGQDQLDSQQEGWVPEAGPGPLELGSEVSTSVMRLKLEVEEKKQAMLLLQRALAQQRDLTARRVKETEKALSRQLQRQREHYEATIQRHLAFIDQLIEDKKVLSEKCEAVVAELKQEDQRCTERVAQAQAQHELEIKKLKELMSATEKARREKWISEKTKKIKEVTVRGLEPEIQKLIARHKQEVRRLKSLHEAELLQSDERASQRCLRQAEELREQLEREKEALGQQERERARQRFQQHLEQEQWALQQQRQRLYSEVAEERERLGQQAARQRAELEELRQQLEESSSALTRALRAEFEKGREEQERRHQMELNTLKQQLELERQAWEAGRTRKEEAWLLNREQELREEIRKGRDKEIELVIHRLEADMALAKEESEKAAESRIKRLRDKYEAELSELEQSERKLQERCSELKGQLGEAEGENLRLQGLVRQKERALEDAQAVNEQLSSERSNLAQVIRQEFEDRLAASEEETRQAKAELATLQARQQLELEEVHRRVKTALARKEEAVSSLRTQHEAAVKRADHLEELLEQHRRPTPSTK
UniProt O15078: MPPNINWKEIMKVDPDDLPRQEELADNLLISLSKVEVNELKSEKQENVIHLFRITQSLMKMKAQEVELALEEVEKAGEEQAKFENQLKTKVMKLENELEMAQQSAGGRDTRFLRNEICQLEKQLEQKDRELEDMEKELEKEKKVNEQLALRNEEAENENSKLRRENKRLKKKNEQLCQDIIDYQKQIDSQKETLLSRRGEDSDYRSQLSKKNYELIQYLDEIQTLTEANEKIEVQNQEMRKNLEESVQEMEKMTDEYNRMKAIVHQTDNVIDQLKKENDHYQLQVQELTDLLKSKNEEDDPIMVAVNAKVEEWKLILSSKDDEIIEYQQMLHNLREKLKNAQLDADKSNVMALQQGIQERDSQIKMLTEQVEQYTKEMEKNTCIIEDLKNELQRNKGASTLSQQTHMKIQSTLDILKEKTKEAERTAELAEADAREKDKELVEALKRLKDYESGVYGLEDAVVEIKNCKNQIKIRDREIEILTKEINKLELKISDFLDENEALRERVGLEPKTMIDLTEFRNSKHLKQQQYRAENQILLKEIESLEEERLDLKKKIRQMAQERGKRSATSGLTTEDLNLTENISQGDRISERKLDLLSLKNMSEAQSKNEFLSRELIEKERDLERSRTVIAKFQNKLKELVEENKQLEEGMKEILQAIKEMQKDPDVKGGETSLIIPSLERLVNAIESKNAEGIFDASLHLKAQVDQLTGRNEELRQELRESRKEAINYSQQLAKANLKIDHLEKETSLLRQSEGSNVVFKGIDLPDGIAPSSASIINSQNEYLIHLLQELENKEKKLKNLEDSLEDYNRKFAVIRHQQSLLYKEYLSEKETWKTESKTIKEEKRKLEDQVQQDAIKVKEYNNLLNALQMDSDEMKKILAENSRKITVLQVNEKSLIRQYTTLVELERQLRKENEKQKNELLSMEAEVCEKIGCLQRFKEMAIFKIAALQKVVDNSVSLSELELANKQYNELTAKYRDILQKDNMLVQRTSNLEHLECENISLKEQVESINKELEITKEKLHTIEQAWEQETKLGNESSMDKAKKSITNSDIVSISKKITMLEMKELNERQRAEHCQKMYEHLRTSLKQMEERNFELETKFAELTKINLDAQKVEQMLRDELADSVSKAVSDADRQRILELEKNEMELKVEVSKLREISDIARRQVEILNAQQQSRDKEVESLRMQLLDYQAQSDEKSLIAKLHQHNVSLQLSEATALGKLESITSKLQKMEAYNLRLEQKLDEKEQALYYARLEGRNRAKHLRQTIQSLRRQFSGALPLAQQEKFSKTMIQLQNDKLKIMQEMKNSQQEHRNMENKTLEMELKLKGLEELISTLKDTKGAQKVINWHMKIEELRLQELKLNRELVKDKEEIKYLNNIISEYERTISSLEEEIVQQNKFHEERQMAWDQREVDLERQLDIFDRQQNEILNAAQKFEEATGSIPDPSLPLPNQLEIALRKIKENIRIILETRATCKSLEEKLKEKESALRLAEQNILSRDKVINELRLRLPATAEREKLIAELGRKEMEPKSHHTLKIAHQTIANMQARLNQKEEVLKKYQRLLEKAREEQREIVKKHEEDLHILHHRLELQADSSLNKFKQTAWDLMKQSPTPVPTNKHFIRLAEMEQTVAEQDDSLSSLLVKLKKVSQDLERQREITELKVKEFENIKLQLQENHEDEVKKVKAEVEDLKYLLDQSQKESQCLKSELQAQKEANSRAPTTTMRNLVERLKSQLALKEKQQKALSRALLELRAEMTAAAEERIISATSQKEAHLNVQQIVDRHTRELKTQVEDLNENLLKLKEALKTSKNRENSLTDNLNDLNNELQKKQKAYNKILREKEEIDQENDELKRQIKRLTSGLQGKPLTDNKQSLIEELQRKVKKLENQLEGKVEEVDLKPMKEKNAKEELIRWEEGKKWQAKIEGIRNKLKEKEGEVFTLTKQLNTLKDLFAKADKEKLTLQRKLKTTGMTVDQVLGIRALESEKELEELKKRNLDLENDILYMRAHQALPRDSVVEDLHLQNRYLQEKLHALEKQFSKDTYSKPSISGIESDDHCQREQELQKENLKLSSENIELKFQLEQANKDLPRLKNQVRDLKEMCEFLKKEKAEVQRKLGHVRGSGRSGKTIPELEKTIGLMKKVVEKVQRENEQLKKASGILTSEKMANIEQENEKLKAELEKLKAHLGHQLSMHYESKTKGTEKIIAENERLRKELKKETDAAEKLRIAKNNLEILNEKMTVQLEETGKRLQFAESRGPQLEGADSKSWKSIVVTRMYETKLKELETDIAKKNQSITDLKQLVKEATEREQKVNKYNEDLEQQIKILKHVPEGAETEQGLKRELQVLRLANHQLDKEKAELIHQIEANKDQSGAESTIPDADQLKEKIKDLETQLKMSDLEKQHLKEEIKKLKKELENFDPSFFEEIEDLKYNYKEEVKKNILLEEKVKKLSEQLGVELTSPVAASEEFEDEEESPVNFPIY
UniProt Q99618: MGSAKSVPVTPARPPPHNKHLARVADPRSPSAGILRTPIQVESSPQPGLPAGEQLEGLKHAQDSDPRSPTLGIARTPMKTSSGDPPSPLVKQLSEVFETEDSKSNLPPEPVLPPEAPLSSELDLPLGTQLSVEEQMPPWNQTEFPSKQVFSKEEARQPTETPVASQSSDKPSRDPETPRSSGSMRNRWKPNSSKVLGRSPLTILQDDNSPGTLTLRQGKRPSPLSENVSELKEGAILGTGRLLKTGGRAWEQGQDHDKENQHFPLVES
UniProt Q01850: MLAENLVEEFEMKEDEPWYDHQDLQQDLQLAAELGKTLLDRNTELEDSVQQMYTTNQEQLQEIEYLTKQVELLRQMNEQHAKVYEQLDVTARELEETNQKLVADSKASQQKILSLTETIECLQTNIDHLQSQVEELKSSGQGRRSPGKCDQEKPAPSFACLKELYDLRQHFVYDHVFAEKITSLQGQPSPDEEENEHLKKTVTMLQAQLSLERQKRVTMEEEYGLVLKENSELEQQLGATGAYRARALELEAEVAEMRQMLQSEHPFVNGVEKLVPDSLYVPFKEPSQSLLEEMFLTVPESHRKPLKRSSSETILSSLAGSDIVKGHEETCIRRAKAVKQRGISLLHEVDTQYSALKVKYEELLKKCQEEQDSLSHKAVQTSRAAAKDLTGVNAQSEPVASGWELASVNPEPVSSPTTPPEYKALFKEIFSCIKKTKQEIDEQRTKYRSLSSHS
UniProt Q16543: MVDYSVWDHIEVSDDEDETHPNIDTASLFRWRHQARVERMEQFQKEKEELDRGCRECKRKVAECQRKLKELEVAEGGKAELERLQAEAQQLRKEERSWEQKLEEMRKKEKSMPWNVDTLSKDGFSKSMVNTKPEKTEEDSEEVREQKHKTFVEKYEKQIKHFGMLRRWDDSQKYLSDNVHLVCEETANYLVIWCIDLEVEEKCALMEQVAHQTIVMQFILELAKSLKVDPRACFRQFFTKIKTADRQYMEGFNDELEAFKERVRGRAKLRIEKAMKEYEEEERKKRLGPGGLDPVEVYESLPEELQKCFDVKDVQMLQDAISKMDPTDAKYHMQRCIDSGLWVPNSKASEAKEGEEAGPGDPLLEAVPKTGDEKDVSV
UniProt P60953, whole entry, looked up: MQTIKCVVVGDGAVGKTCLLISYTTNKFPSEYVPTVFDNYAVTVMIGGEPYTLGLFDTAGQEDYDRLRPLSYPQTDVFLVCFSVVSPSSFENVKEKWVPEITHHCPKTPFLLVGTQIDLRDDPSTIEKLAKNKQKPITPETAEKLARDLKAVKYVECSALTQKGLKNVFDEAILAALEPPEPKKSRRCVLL
UniProt Q7L3B6: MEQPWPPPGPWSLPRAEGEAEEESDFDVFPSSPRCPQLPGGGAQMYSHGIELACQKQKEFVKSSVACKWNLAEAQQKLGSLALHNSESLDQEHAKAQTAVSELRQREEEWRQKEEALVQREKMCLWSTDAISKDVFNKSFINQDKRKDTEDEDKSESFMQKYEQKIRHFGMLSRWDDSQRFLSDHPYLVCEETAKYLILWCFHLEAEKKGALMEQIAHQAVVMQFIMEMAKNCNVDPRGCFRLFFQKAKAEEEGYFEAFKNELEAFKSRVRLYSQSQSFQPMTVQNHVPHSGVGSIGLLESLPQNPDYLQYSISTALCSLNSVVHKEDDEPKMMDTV
UniProt Q9H3R5: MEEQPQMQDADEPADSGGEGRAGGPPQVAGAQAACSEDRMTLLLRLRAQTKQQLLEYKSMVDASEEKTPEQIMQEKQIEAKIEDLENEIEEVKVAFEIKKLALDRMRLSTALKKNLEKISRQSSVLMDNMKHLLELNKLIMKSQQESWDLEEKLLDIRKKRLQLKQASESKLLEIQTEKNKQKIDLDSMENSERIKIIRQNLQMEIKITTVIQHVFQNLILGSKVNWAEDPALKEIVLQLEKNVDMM

[1] = compound: CCCS(=O)(=O)Nc1ccc(F)c(C(=O)c2c[nH]c3ncc(Cl)cc23)c1F
How it was run: as §1

barasertib = compound: CCN(CCCOc1ccc2c(Nc3cc(CC(=O)Nc4cccc(F)c4)[nH]n3)ncnc2c1)CCOP(=O)(O)O [barasertib]
How it was run: as §1

[2] = compound: CC[C@@H]1C(=O)N(C)c2cnc(Nc3ccc(C(=O)NC4CCN(C)CC4)cc3OC)nc2N1C1CCCC1
How it was run: as §1

volasertib = compound: CC[C@@H]1C(=O)N(C)c2cnc(Nc3ccc(C(=O)N[C@H]4CC[C@H](N5CCN(CC6CC6)CC5)CC4)cc3OC)nc2N1C(C)C [volasertib]
How it was run: as §1

[3] = compound: CCn1c(C(=O)N(C2CC2)C2CC2)cc2c3c(ncn3C)c(Nc3cc(C)n(C)n3)nc21
How it was run: as §1

[4] = compound: CCn1cc(-c2ccnc3[nH]c(-c4cccc(CN(C)C)c4)cc23)c(-c2ccc(NC(=O)N(C)C)cc2)n1
How it was run: as §1

[5] = compound: CN1CCC(CNc2ccc3ncc(-c4cccc(OC(F)(F)F)c4)n3n2)CC1
How it was run: as §1

saracatinib = compound: CN1CCN(CCOc2cc(OC3CCOCC3)c3c(Nc4c(Cl)ccc5c4OCO5)ncnc3c2)CC1 [saracatinib]
How it was run: as §1

sotrastaurin = compound: CN1CCN(c2nc(C3=C(c4c[nH]c5ccccc45)C(=O)NC3=O)c3ccccc3n2)CC1 [sotrastaurin]
How it was run: as §1

alvocidib = compound: CN1CC[C@H](c2c(O)cc(O)c3c(=O)cc(-c4ccccc4Cl)oc23)[C@H](O)C1 [alvocidib]
How it was run: as §1

Tubastatin A = compound: CN1CCc2c(c3ccccc3n2Cc2ccc(C(=O)NO)cc2)C1 [Tubastatin A]
How it was run: as §1

[6] = compound: CNC(=O)C1=CC=CC=C1NC2=NC(=NC=C2Cl)NC3=C(C=C(C=C3)N4CCOCC4)OC
How it was run: as §1

defactinib = compound: CNC(=O)c1ccc(Nc2ncc(C(F)(F)F)c(NCc3nccnc3N(C)S(C)(=O)=O)n2)cc1 [defactinib]
How it was run: as §1

[7] = compound: CNc1nc(-c2ccc3c(N)n[nH]c3c2)cc(N2C[C@@H](C(=O)NC3CCCCC3)CC[C@H]2C)n1
How it was run: as §1

encorafenib = compound: COC(=O)N[C@@H](C)CNc1nccc(-c2cn(C(C)C)nc2-c2cc(Cl)cc(NS(C)(=O)=O)c2F)n1 [encorafenib]
How it was run: as §1

[8] = compound: COC(=O)[C@H](CCSC)NC(=O)C1=C(C=C(C=C1)NC[C@H](CS)N)C2=CC=CC=C2
How it was run: as §1

alisertib = compound: COc1cc(Nc2ncc3c(n2)-c2ccc(Cl)cc2C(c2c(F)cccc2OC)=NC3)ccc1C(=O)O [alisertib]
How it was run: as §1

[9] = compound: COc1cc2nc(-c3cc(F)ccc3O)nc(N[C@@H]3CNC[C@H]3C(C)(C)O)c2cc1OC
How it was run: as §1

gefitinib = compound: COc1cc2ncnc(Nc3ccc(F)c(Cl)c3)c2cc1OCCCN1CCOCC1 [gefitinib]
How it was run: as §1

Measured: log2 fold change

CFH (UniProt P08603)
inactive: vemurafenib 0.021 | [1] 0.034 | barasertib 0 | [2] 0.024 | volasertib 0.108 | [3] 0.006 | [4] 0.122 | [5] -0.087 | saracatinib -0.096 | sotrastaurin 0.047 | alvocidib 0.062 | Tubastatin A 0.018 | [6] 0.006 | defactinib -0.007 | [7] 0.128 | encorafenib 0 | [8] 0.016 | alisertib -0.068 | [9] 0.062 | gefitinib -0.096

CDCA2 (UniProt Q69YH5)
inactive: vemurafenib 0.013 | [1] -0.088 | barasertib -0.042 | [2] -0.01 | volasertib 0.042 | [3] -0.096 | [4] 0.078 | [5] -0.079 | saracatinib 0.012 | sotrastaurin -0.019 | alvocidib -0.006 | Tubastatin A 0.052 | [6] 0.025 | defactinib -0.012 | [7] 0.135 | encorafenib 0.075 | [8] 0.052 | alisertib -0.041 | [9] 0.179 | gefitinib 0.096

CDK2 (UniProt P24941)
active: alvocidib 0.304
inactive: vemurafenib -0.012 | [1] 0.012 | barasertib -0.01 | [2] -0.059 | volasertib -0.025 | [3] 0.008 | [4] -0.055 | [5] 0.167 | saracatinib -0.017 | sotrastaurin 0.09 | Tubastatin A 0.021 | [6] 0.08 | defactinib 0.196 | [7] 0.048 | encorafenib 0.016 | [8] -0.012 | alisertib -0.01 | [9] 0.072 | gefitinib -0.012

CDK5RAP3 isoform 4 (UniProt Q96JB5)
inactive: vemurafenib 0.023 | [1] 0.013 | barasertib 0.022 | [2] -0.008 | volasertib -0.051 | [3] 0.029 | [5] 0.216 | saracatinib -0.002 | sotrastaurin -0.021 | alvocidib -0.118 | Tubastatin A 0.038 | [6] -0.007 | defactinib -0.021 | [7] 0.021 | encorafenib 0.007 | [8] 0.094 | alisertib 0.006 | [9] 0.026 | gefitinib -0.024
active: [4] -0.313

CELF1 isoform 4 (UniProt Q92879)
inactive: vemurafenib 0.024 | [1] 0.014 | barasertib 0.03 | [2] -0.044 | volasertib -0.133 | [3] 0.012 | [4] 0.08 | [5] -0.08 | saracatinib 0.035 | sotrastaurin 0.054 | alvocidib 0 | Tubastatin A -0.167 | [6] 0.034 | defactinib 0.049 | [7] -0.059 | encorafenib 0.108 | [8] -0.031 | alisertib 0.048 | [9] -0.026 | gefitinib 0.056

CEP131 (UniProt Q9UPN4)
inactive: vemurafenib -0.145 | [1] 0.108 | barasertib -0.122 | [2] 0.108 | volasertib 0.009 | [3] -0.075 | [4] -0.031 | [5] 0.058 | saracatinib 0.011 | sotrastaurin 0.023 | alvocidib -0.022 | Tubastatin A 0.005 | [6] -0.133 | defactinib 0.005 | [7] 0.071 | encorafenib 0.127 | [8] -0.061 | alisertib -0.033 | [9] -0.035 | gefitinib 0.019

CDK11B (UniProt P21127)
inactive: vemurafenib 0.025 | [1] 0.002 | barasertib 0.022 | [2] -0.087 | volasertib -0.057 | [3] 0.029 | [4] -0.047 | [5] -0.048 | saracatinib -0.024 | sotrastaurin 0.01 | Tubastatin A -0.081 | [6] 0.012 | defactinib -0.013 | [7] 0.019 | encorafenib -0.012 | [8] 0.108 | alisertib 0.012 | [9] -0.036 | gefitinib -0.016
active: alvocidib 0.273

CEP290 (UniProt O15078)
inactive: vemurafenib -0.021 | [1] 0.021 | barasertib -0.169 | [2] 0.005 | volasertib -0.026 | [3] -0.046 | [4] -0.031 | [5] 0.018 | saracatinib 0 | sotrastaurin 0.017 | alvocidib -0.001 | Tubastatin A -0.077 | [6] -0.008 | defactinib 0.098 | [7] 0.103 | encorafenib 0.076 | [8] -0.109 | alisertib -0.009 | [9] 0.017 | gefitinib 0.018

CDCA3 (UniProt Q99618)
inactive: vemurafenib 0.01 | [1] -0.002 | barasertib -0.016 | [2] 0.064 | volasertib 0.031 | [3] -0.077 | [4] -0.074 | [5] 0.062 | saracatinib 0.016 | sotrastaurin -0.042 | alvocidib -0.014 | Tubastatin A 0.076 | [6] -0.016 | defactinib 0.029 | [7] 0.17 | encorafenib 0.015 | [8] -0.028 | alisertib -0.019 | [9] 0.007 | gefitinib 0.026

CDR2 (UniProt Q01850)
inactive: vemurafenib -0.063 | [1] -0.002 | barasertib -0.013 | [2] 0.091 | volasertib 0.025 | [3] 0.072 | [4] 0.013 | [5] -0.01 | saracatinib -0.044 | sotrastaurin 0.116 | alvocidib 0.024 | Tubastatin A 0.048 | [6] 0.043 | defactinib 0.106 | [7] 0.158 | encorafenib 0.042 | [8] 0.031 | alisertib 0.002 | [9] 0.051 | gefitinib -0.086

CDC37 (UniProt Q16543)
inactive: vemurafenib -0.018 | [1] -0.011 | barasertib -0.02 | [2] 0.052 | volasertib 0.012 | [3] -0.025 | [4] 0.051 | [5] -0.028 | saracatinib 0 | sotrastaurin -0.019 | alvocidib 0.02 | Tubastatin A 0.06 | [6] 0.008 | defactinib -0.012 | [7] 0.004 | encorafenib -0.021 | [8] -0.039 | alisertib 0.001 | [9] -0.004 | gefitinib 0.006

CDC42 isoform 1 (UniProt P60953)
inactive: vemurafenib 0.05 | [1] -0.027 | barasertib 0.048 | [2] 0.034 | volasertib 0.001 | [3] 0.01 | [4] -0.086 | [5] 0.161 | saracatinib 0.009 | sotrastaurin -0.032 | alvocidib -0.083 | Tubastatin A 0.057 | [6] -0.065 | defactinib -0.094 | [7] 0.022 | encorafenib -0.002 | [8] -0.052 | alisertib 0.004 | [9] 0.025 | gefitinib 0.014

CDC42EP4 (UniProt Q9H3Q1)
inactive: vemurafenib 0.01 | [1] -0.01 | barasertib 0.013 | [2] 0.162 | volasertib 0.013 | [3] -0.04 | [4] -0.021 | [5] 0.042 | saracatinib -0.064 | sotrastaurin -0.012 | alvocidib -0.086 | Tubastatin A -0.013 | [6] 0.041 | defactinib 0.033 | [7] 0.113 | encorafenib 0.079 | [8] -0.054 | alisertib -0.085 | [9] -0.017 | gefitinib 0.006

CDC40 (UniProt O60508)
inactive: vemurafenib 0.01 | [1] 0.013 | barasertib -0.016 | [2] -0.105 | volasertib -0.001 | [3] 0.034 | [4] -0.006 | [5] 0.046 | saracatinib -0.056 | sotrastaurin -0.049 | alvocidib 0.016 | Tubastatin A 0.147 | [6] 0.045 | defactinib -0.002 | [7] 0.069 | encorafenib 0.095 | [8] 0.069 | alisertib -0.049 | [9] 0.034 | gefitinib -0.021

Quoted from the entries so far (2 entries):
CDK11B (UniProt P21127)
inactive: vemurafenib 0.025 | [1] 0.002 | barasertib 0.022 | [2] -0.087 | volasertib -0.057 | [3] 0.029 | [4] -0.047 | [5] -0.048 | saracatinib -0.024 | sotrastaurin 0.01 | Tubastatin A -0.081 | [6] 0.012 | defactinib -0.013 | [7] 0.019 | encorafenib -0.012 | [8] 0.108 | alisertib 0.012 | [9] -0.036 | gefitinib -0.016
active: alvocidib 0.273

CEP290 (UniProt O15078)
inactive: vemurafenib -0.021 | [1] 0.021 | barasertib -0.169 | [2] 0.005 | volasertib -0.026 | [3] -0.046 | [4] -0.031 | [5] 0.018 | saracatinib 0 | sotrastaurin 0.017 | alvocidib -0.001 | Tubastatin A -0.077 | [6] -0.008 | defactinib 0.098 | [7] 0.103 | encorafenib 0.076 | [8] -0.109 | alisertib -0.009 | [9] 0.017 | gefitinib 0.018

(further entries)

CDC37L1 (UniProt Q7L3B6)
inactive: vemurafenib 0.035 | [1] -0.003 | barasertib 0.121 | [2] 0.069 | volasertib 0.01 | [3] -0.033 | [4] -0.033 | [5] -0.002 | saracatinib 0.033 | sotrastaurin 0.028 | alvocidib -0.018 | Tubastatin A -0.008 | [6] 0.069 | defactinib 0.021 | [7] 0.074 | encorafenib -0.002 | [8] -0.029 | alisertib -0.096 | [9] 0.006 | gefitinib 0.04

CENPH (UniProt Q9H3R5)
inactive: vemurafenib 0.032 | [1] -0.014 | barasertib 0.037 | [2] -0.002 | volasertib -0.029 | [3] -0.023 | [4] 0.045 | [5] -0.177 | saracatinib 0.049 | sotrastaurin 0.003 | alvocidib 0.012 | Tubastatin A -0.001 | [6] 0.032 | defactinib -0.038 | [7] -0.013 | encorafenib 0.015 | [8] 0.006 | alisertib -0.031 | [9] 0.002 | gefitinib 0.029

Reference: the supplement of paper PMC10849652
